No constants are given. Whether binding was seen depends on the method and setting. Binding seen in cells or lysates may run through a third protein. Binding can be weak; no strength is given. Tags and fused reporters may be left off the sequences shown.
Key:
[1] = target: endogenous NDUFV1 (human (endogenous in HEK293T)) (UniProt P49821); experiment: co-IP; HEK293T cells transfected with one tagged partner, the other partner endogenous; IgG as negative control
[2] = target: Flag-NDU-Δ277-325 (human) (UniProt P49821); experiment: co-IP; HEK293T cells co-transfected with both partners (exogenous, tagged or untagged); blots; protocol by reference 43
[3] = target: Flag-NDU-Δ364-448 (human) (UniProt P49821); experiment: as above
Flag-NDU-Δ80-249 (human) = Flag-NDU-Δ80-249 (human) (UniProt P49821); experiment: as above
[4] = target: Flag-tagged NDUFV1, full length (human) (UniProt P49821); experiment: as above
[5] = target: endogenous NDUFV1 (human (endogenous in HEK293T)) (UniProt P49821); experiment: co-IP; cytoplasmic and mitochondrial protein extracted from HEK293T cells transfected with HA-NC or HA-CYTL1; endogenous NDUFV1
[6] = target: Flag-tagged NDUFV1, full length (human) (UniProt P49821); experiment: co-IP; HEK293T cells in which a third protein is co-expressed as blocker (Myc-CYTL1 with 20 μM MG132 for 6 h; HA-CYTL1 or HA-ΔCYTL1; Flag-NDUFV1) against a control vector

The chains behind the UniProt entries cited, without tags or fusion partners. Where a name states a change or a piece, a line headed by the entry shows the natural chain unless it says otherwise.
UniProt P49821: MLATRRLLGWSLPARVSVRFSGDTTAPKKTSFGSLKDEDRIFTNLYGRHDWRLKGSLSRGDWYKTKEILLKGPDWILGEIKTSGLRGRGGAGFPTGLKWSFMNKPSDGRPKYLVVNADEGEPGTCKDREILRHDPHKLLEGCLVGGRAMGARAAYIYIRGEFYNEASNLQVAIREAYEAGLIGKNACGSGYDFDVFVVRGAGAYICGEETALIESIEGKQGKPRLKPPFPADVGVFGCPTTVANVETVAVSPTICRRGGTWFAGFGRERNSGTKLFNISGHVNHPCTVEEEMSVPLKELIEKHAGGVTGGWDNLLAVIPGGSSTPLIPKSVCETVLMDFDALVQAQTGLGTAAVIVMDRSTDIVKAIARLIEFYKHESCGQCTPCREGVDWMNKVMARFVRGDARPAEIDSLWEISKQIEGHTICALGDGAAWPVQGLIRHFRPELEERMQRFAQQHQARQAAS

Measured: binding

B1: HA-tagged full-length cytokine-like protein 1 (CYTL1) (protein, UniProt Q9NRR1 23-136)
chain: TPPTCYSRMRALSQEITRDFNLLQVSEPSEPCVRYLPRLYLDIHNYCVLDKLRDFVASPPCWKVAQVDSLKDKARKLYTIMNSFCRRDLVFLLDDCNALEYPIPVTTVLPDRQR
not listed: [6]
binds: all other assays above

B2: HA-ΔCYTL1 (CYTL1 lacking the 1-22 aa signal peptide) (domain or fragment, UniProt Q9NRR1 23-136)
chain: B1 chain
binds: [1] | [4]

B3: Myc-CYTL1 (protein, UniProt Q9NRR1 23-136)
chain: B1 chain
binds: [6]

Reference: PMC8813937
